Reference: paper PMC2134948
These are yes or no findings as the source states them, for the method shown. Binding seen in cells or lysates may run through a third protein. Some entries that bind do so weakly or less than the wild type. For some of these results: Sequences can lack the tags named with a protein.

By UniProt entry, the sequences of proteins in these tests, tags left out.
UniProt Q07813: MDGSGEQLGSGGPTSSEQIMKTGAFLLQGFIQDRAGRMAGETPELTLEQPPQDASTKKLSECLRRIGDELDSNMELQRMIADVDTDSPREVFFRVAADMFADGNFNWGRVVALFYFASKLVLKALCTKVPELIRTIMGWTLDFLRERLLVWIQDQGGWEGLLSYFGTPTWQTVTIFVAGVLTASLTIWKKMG

Assays:
ECFP-Bax (mouse) = ECFP-Bax (mouse) (UniProt Q07813); assay: FRET or BRET; flow cytometry-based FRET in living NIH3T3/puro, NIH3T3/vMAP and NIH3T3/vMAPΔ20 cells 36 h after transfection with pEYFP and pECFP fusions
[1] = target: T1, HA-Bad (in NIH3T3) (mouse) (UniProt Q61337); assay: co-IP; NIH3T3/puro, NIH3T3/vMAP, NIH3T3/vMAPΔ20 or NIH3T3/vMAP L/A stable cells transfected with an HA-tagged and a Flag-tagged protein; whole cell lysates, IP anti-HA, immunoblot anti-Flag; anti-Myc IP as negative control
T1 sequence: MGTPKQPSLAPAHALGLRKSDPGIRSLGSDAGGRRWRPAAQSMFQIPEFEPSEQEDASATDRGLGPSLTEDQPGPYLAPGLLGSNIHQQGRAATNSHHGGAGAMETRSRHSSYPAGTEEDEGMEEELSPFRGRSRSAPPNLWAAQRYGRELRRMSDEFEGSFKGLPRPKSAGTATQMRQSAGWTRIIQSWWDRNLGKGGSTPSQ

[2] = target: HA-Bax (in NIH3T3) (mouse) (UniProt Q07813); assay: as above

Substance | binding (ECFP-Bax (mouse)) | binding [1] | binding [2]
EYFP-Bcl-2 (from UniProt P10415-1 1-239) | binds |  | 
Flag-Bcl-2 (from UniProt P10415-1 1-239) |  | binds | binds
Flag-Bcl-xL (from UniProt Q07817-1 1-233) |  | binds | 
